Data reported in US20230220006A1, “REGENTIDE-034 AND COMPOSITION FOR IMPROVING CONDITION OF SKIN, CONTAINING SAME” (NI[…]., LTD., priority 2020, published 2023).
Part of at least one peptide drawing is inferred or uncertain, most often the ends. Where a SMILES comes first, the peptide text is derived from it.

How the values were obtained:
Type in all cases: cell-based, human
CCD-986Sk [1] = assay: Collagen biosynthesis ability according to natural aging (procollagen ELISA, passage 15 and 20 fibroblasts); conditions: natural aging (passage 15 and 20 cells), 24 hours
CCD-986Sk [2] = assay: Wound recovery effect of fibroblasts (insert migration assay); conditions: 1 and 2.5 µM, 16 and 40 hours, FBS-free medium
CCD-986Sk [3] = assay: Collagen biosynthesis ability according to photoaging (procollagen ELISA, UVB-irradiated fibroblasts); conditions: 24 hours
HaCaT cells [4] = assay: Epidermal keratinocyte growth promoting efficacy (cell number)
CCD986Sk cells = assay: Fibroblast growth promoting efficacy (cell number)
HaCaT cells [5] = assay: Wound recovery effect of epidermal keratinocytes (insert migration assay); conditions: 1 and 2.5 µM, 16 and 40 hours, FBS-free medium

## C[C@H](N)C(=O)N[C@@H](Cc1ccc(O)cc1)C(=O)NCC(=O)N[C@@H](CS)C(=O)N[C@@H](Cc1ccc(O)cc1)C(=O)N[C@@H](CS)C(=O)NCC(=O)N[C@@H](Cc1c[nH]c2ccccc12)C(=O)NCC(=O)NCC(N)=O [Regentide-034, AYGCYCGWGG-NH2] (H-AYGCYCGWGG-NH2)
CCD-986Sk [1]; 0.2 µM
  increase of collagen synthesis efficacy: 21%
CCD-986Sk [1]; all groups (0.1, 0.2, 0.5 µM)
  collagen synthesis ability compared to the untreated group: increased
CCD-986Sk [2]
  cell number and cell migration ability of fibroblasts: increased the cell number and cell migration ability
CCD-986Sk [3]; UVB 25 mJ/cm^2, 0.2 µM
  increase of collagen synthesis efficacy: 85%
CCD-986Sk [3]; UVB 25 mJ/cm^2, all groups (0.1, 0.2, 0.5 µM)
  collagen synthesis ability reduced by UVB, compared to the group treated with UVB only: increased
HaCaT cells [4]; HaCaT, 500 nM, after 8 days
  cell growth rate higher than that of the untreated control group: about 32.9%
HaCaT cells [4]; HaCaT, 100, 200, 500 nM, up to 8 days
  growth of epidermal keratinocytes: promoted the growth of epidermal keratinocytes in a concentration and time-dependent manner
CCD986Sk cells; CCD986Sk, 500 nM, after 8 days
  cell growth rate higher than that of the untreated control group: about 24.6%
CCD986Sk cells; CCD986Sk, 100, 200, 500 nM, up to 8 days
  growth of fibroblasts: promoted the growth of fibroblasts in a concentration and time-dependent manner
HaCaT cells [5]
  cell number and cell migration ability of epidermal keratinocytes: increased the cell number and cell migration ability
